In patent US20260184774A1:
Results are given in words; binding and its absence hold for the method and conditions named. In cells and extracts the contact can be indirect. Some entries that bind do so weakly or less than the wild type.

Target: APP 751 (UniProt P05067)
Experiment: co-immunoprecipitation from HEK293FT lysates, western blot (FIG. 26A)

- binding: binds
B1: CNTN4 #10 (full length, Ig1 to FN4) (protein, UniProt Q8IWV2 19-1000, looked up)
chain: DDSTLHGPIFIQEPSPVMFPLDSEEKKVKLNCEVKGNPKPHIRWKLNGTDVDTGMDFRYSVVEGSLLINNPNKTQDAGTYQCTATNSFGTIVSREAKLQFAYLDNFKTRTRSTVSVRRGQGMVLLCGPPPHSGELSYAWIFNEYPSYQDNRRFVSQETGNLYIAKVEKSDVGNYTCVVTNTVTNHKVLGPPTPLILRNDGVMGEYEPKIEVQFPETVPTAKGATVKLECFALGNPVPTIIWRRADGKPIARKARRHKSNGILEIPNFQQEDAGLYECVAENSRGKNVARGQLTFYAQPNWIQKINDIHVAMEENVFWECKANGRPKPTYKWLKNGEPLLTRDRIQIEQGTLNITIVNLSDAGMYQCLAENKHGVIFSNAELSVIAVGPDFSRTLLKRVTLVKVGGEVVIECKPKASPKPVYTWKKGRDILKENERITISEDGNLRIINVTKSDAGSYTCIATNHFGTASSTGNLVVKDPTRVMVPPSSMDVTVGESIVLPCQVTHDHSLDIVFTWSFNGHLIDFDRDGDHFERVGGQDSAGDLMIRNIQLKHAGKYVCMVQTSVDRLSAAADLIVRGPPGPPEAVTIDEITDTTAQLSWRPGPDNHSPITMYVIQARTPFSVGWQAVSTVPELIDGKTFTATVVGLNPWVEYEFRTVAANVIGIGEPSRPSEKRRTEEALPEVTPANVSGGGGSKSELVITWETVPEELQNGRGFGYVVAFRPYGKMIWMLTVLASADASRYVFRNESVHPFSPFEVKVGVFNNKGEGPFSPTTVVYSAEEEPTKPPASIFARSLSATDIEVFWASPLEKNRGRIQGYEVKYWRHEDKEENARKIRTVGNQTSTKITNLKGSVLYHLAVKAYNSAGTGPSSATVNVTTRKPPPSQPPGNIIWNSSDSKIILNWDQVKALDNESEVKGYKVLYRWNRQSSTSVIETNKTSVELSLPFDEDYIIEIKPFSDGGDGSSSEQIRIPKISNAYARGS
